Laboratory results from PubChem BioAssay AID434947 (Broad Institute, 2010).
Out of some 2,200 compounds screened, about 15 (0.7%) were called active.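 How the source made its calls: active means fitted half-maximal concentration for loss of luminescence signal no more than a set limit of log units above the top tested concentration; inconclusive means flat fit with 30 to 70% signal loss, or invalid fit; inactive means half-maximal concentration above that set limit.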 The list shows a part of the results.

Experiment: inhibitors of ADP-Glo detection reagents, dose response, artefact control for GSK3beta inhibitor project, biochemical, luminescence, cell-free, homogeneous (AID 434947);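 further: kinase-free counter screen of ADP-Glo detection reagents for GSK3beta hits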
Settings: 5 uM ADP

EC50, inactive:
CCn1c(SCC(=O)Nc2ccc(Br)cn2)nnc1C1CC1 > 30 µM, COc1ccc(CNCC2COc3ccccc3O2)cc1 (stereo not drawn) > 30 µM, COc1ccc(-c2nnc3ccc(SCc4ccccc4)nn23)cc1 > 30 µM, COc1cc(/C=N/NC(=O)c2ccc3ccccc3c2)ccc1Oc1ccc([N+](=O)[O-])cn1 > 30 µM, COCCCNc1nc(N)c([N+](=O)[O-])c(NCC2CCCO2)n1 (stereo not drawn) > 30 µM, Cc1nc(Nc2ccc(S(N)(=O)=O)cc2)sc1C(=O)Nc1ccccc1 > 30 µM, CN(c1ncnc(N)c1[N+](=O)[O-])C1CCCCC1 > 30 µM, Cc1cc2oc(=O)cc(Cn3ccnc3)c2cc1O > 30 µM, COc1ccc(C(=O)c2ccsc2N)cc1 > 30 µM, COc1ccc(Nc2nc(N)nc(CSc3nnc(C)s3)n2)cc1 > 30 µM, COc1ccc(/C=C2\SC(=Nc3ccccc3)NC2=O)cc1 > 30 µM, Cc1[nH]nc2c1C(c1ccc(N(C)C)cc1)C1=C(CC(C)(C)CC1=O)N2 (stereo not drawn) > 30 µM, Cc1nn(-c2ccccn2)c2c1C(c1ccncc1)C1=C(CC(C)(C)CC1=O)N2 (stereo not drawn) > 30 µM, O=C(O)c1ccc2c3n(nc2c1)-c1ccc(Cl)cc1CO3 > 30 µM, O=C(CCc1nnc(CCCCc2ccccc2)o1)NCc1cccc(F)c1 > 30 µM, Cc1ccc2cc3c(NC(=O)C4CCCO4)nn(CC(C)C)c3nc2c1 (stereo not drawn) > 30 µM, O=C(O)COCC(=O)N1CCN(C(c2ccccc2)c2ccccc2)CC1 > 30 µM, COc1cccc2c1cc1c(=O)n(CC(=O)NCCCc3ccccc3)nc(C)n12 > 30 µM, O=C(NC1CCCCC1)C(c1ccc(F)cc1)N(Cc1ccccc1)C(=O)CN1C(=O)c2ccccc2S1(=O)=O (stereo not drawn) > 30 µM, COc1ccc(S(=O)(=O)Nc2c(C(=O)O)[nH]c3ccc(OC)cc23)c(OC)c1 > 30 µM, CCCCC(=O)Nc1cc(C)c(NC(=O)c2cccs2)cn1 > 30 µM, COc1ccc(C)cc1NC(=O)CN(C)S(=O)(=O)c1ccc2c(c1)CC(C)N2C(C)=O (stereo not drawn) > 30 µM, N/C(=N\O)c1ccc(Oc2ccccc2Cl)c([N+](=O)[O-])c1 > 30 µM, O=C(NCCCN1CCCC1=O)c1c(O)nc2sccn2c1=O > 30 µM, COc1ccccc1N1CCN(/N=C/c2ccc(Cl)c([N+](=O)[O-])c2)CC1 > 30 µM, O=C(CSc1nnc(CNC(=O)c2cccc(C(F)(F)F)c2)o1)NC1CCCCC1 > 30 µM, CCCCc1cc(=O)oc2cc(O)cc(O)c12 > 30 µM, O=C(CSc1nnc(COc2ccc(Cl)cc2)o1)N1c2ccccc2CCc2ccccc21 > 30 µM, COc1ccc(-c2cc(C(F)(F)F)nc(SCCC(=O)N3CCOCC3)n2)cc1 > 30 µM, c1ccc(Nc2nc(-c3ccncc3)nc3ccccc23)cc1 > 30 µM, Cc1c(C#N)c(O)[nH]c(=O)c1N=Nc1ccc(S(N)(=O)=O)cc1 > 30 µM, O=C(O)c1ccccc1NCc1ccncc1 > 30 µM, CCCn1nc(NC(=O)C2CCCO2)c2cc3cccc(C)c3nc21 (stereo not drawn) > 30 µM, O=c1oc2cc(O)ccc2c2c1CCCC2 > 30 µM, COc1ccc2nc3c(cc2c1)c(NC(=O)c1cccs1)nn3CC(C)C > 30 µM, CSc1nsc(/C=C/Nc2ccc(Cl)cc2)c1C#N > 30 µM, COc1ccc(C2C(C#N)=C(C)NC3=C2C(=O)CC(C)(C)C3)cc1 (stereo not drawn) > 30 µM, CCOC(=O)CC(=O)CSc1ccc2nnc(-c3ccc(F)cc3)n2n1 > 30 µM, CC(=O)N1CCC(=O)Nc2ccc([N+](=O)[O-])cc21 > 30 µM, COc1ccc(-c2nn(-c3ccccc3)cc2N)cc1 > 30 µM, Fc1ccccc1/C=N/Nc1ncnc2nc[nH]c12 > 30 µM, COCCOc1ccc(C(F)(F)F)cc1NC(=O)COC(=O)c1cc[n+]([O-])cc1 > 30 µM, O=c1cc(NCc2ccccc2)nc2n1CCCS2 > 30 µM, O=C1/C(=C/C=C/c2ccccc2)Oc2c1ccc(O)c2CN1CCN(CCO)CC1 > 30 µM, Nc1nc(Nc2ccc(Cl)cc2)nc(NCCO)c1[N+](=O)[O-] > 30 µM, c1ccc(Nc2ccnc(Nc3ccccc3)n2)cc1 > 30 µM, COc1ccc(-c2nn(CCC#N)cc2/C=N/O)cc1 > 30 µM, C=CCNc1nc(N)c([N+](=O)[O-])c(NCCO)n1 > 30 µM, O=C(Nc1ccncc1)Nc1ccncc1 > 30 µM, Nc1ncc(-c2ccccc2)c(-c2ccc(O)cc2O)n1 > 30 µM, O=C(N/N=C/c1ccc(-c2ccc(Cl)c(C(=O)O)c2)o1)c1cc2c(ccc3ccccc32)o1 > 30 µM, Nc1nc(F)nc2c1ncn2[C@@H]1O[C@H](CO)[C@@H](O)[C@@H]1O > 30 µM, Cc1ccc2c(c1)COc1c3ccc(C(=O)O)cc3nn1-2 > 30 µM, COc1ccc(OC)c(Nc2nc(N)c([N+](=O)[O-])c(NC3CCCCC3)n2)c1 > 30 µM, O=C(O)c1ccccc1C(=O)Nc1nccs1 > 30 µM, Cc1nn(CC(=O)N2CCN(c3ccccn3)CC2)c(=O)c2cc3sccc3n12 > 30 µM, COc1ccc2nc(C)cc(N3CCN(c4ccccc4)CC3)c2c1 > 30 µM, COC(=O)c1nnn(-c2nonc2N)c1CSc1nnc(N)s1 > 30 µM, O=C(NCCN1C(=O)S/C(=C\c2ccc(Cl)c(Cl)c2)C1=O)C1COc2ccccc2O1 (stereo not drawn) > 30 µM, O=C(O)COc1ccc2occ(C(=O)c3ccccc3)c2c1 > 30 µM, OCCNc1nc2nonc2nc1NCCO > 30 µM, CCC(C)Nc1nc(N)c([N+](=O)[O-])c(Nc2cc(OC)ccc2OC)n1 (stereo not drawn) > 30 µM, COc1ccc(N2CCN(CCNC(=O)c3nnc(Cc4c(F)cccc4Cl)o3)CC2)cc1 > 30 µM, C/C(=N\NC(=O)c1nnn(-c2nonc2N)c1CN1CCC(C)CC1)c1cccc(Br)c1 > 30 µM, O=c1cc(-c2ccc(O)cc2)oc2cc(O)cc(O)c12 > 30 µM, O=C(C(Cc1ccccc1)n1cccc1)N1CCN(c2cccc(Cl)c2)CC1 (stereo not drawn) > 30 µM, Cc1c(Br)c([N+](=O)[O-])nn1CCCC(=O)N1CCN(c2ccccc2)CC1 > 30 µM, C/C=C/c1ccc(OCC(=O)O)c(OC)c1 > 30 µM, COc1ccc(CCNc2nc(-c3cccnc3)nc3ccccc23)cc1OC > 30 µM, CN(C)c1ccc(/C=N/NC(=O)c2nnn(-c3nonc3N)c2CN2CCCCCC2)cc1 > 30 µM, COc1ccc(NC(=O)NC2CCCc3ccccc32)cc1 (stereo not drawn) > 30 µM, COc1ccc2nc(NC(=O)CSc3nc4cccnc4n3C)sc2c1 > 30 µM, O=[N+]([O-])c1ccc(N2CCCCCC2)c([N+](=O)[O-])c1 > 30 µM, O=c1cc(-c2ccccc2Cl)oc2c(NS(=O)(=O)c3cccs3)ccc(O)c12 > 30 µM, COc1ccc(CNC(=O)CN(Cc2cccs2)C(=O)CCC(=O)Nc2ccccn2)cc1 > 30 µM, O=C(CCSCCc1ccccn1)Nc1ccc(Br)cn1 > 30 µM, Nc1nc(Nc2ccccc2)nc(NCCO)c1[N+](=O)[O-] > 30 µM, Clc1cccc(CNc2nc(-c3cccnc3)nc3ccccc23)c1 > 30 µM, COc1ccc(C(=O)NCC(=O)N/N=C/c2ccc(C)o2)cc1OC > 30 µM, COc1ccc(-c2nn(-c3ccccc3)cc2/C=N/n2cnnc2)cc1OC > 30 µM, COc1ccc(Nc2ccccc2C(=O)O)cc1 > 30 µM, CCCn1nc(NC(=O)C2CCCO2)c2cc3cc(C)ccc3nc21 (stereo not drawn) > 30 µM, O=C1CC(O)(C(F)(F)F)Oc2c1ccc1ccccc21 (stereo not drawn) > 30 µM, OCCCNc1cc(-c2ccnc(Nc3cccc(Cl)c3)n2)ccn1 > 30 µM, Cc1ccc(-c2nn(-c3ccccc3)cc2/C=N/n2c(-c3ccncc3)n[nH]c2=S)cc1 > 30 µM, CC(C)c1c(C(=O)N/N=C/c2ccoc2)nnn1-c1nonc1N > 30 µM, N#Cc1c2n(c3c(=S)nc[nH]c13)CCCCC2 > 30 µM, O=C1c2ccccc2NC(c2cn[nH]c2-c2ccccc2)N1O (stereo not drawn) > 30 µM, COc1ccc(/C=c2\s/c(=C\C(=O)C(C)(C)C)[nH]c2=O)cc1O > 30 µM, COCCN(CC(=O)NCc1ccc(F)cc1)C(=O)CCC(=O)Nc1ccccn1 > 30 µM, CCN1C(=O)N[C@@H](c2ccccc2)[C@@H](C(=O)OC)[C@H]1C > 30 µM, O=C(NCc1ccccc1)c1ccc2nccnc2c1 > 30 µM, Cc1nn(-c2ccccc2)c2c1cc1c(=O)n(C)c(=O)nc-1n2-c1ccccc1F > 30 µM
